In the supplement of paper PMC8728848:
The list shows a part of the results.

Assays:
Test in all cases: glycan array binding signal (z-score within array); higher = stronger binding
Conditions in all cases: glycan notation: IUPAC condensed, linker removed; mutation: R201A
[1] = molecular target: Gal(b1-4)GlcNAc(b1-6)Gal(b1-4)GlcNAc
Procedure, shortened: (§1)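 Arrays were curated from the Consortium for Functional Glycomics database, 3228 in total, and kept only where the protein sequence was available. Binding is expressed as a within-array Z-score. This score was averaged across arrays of the same protein sequence at different concentrations or buffers and across linkers, and negative values can be read as non-binding.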

[2] = molecular target: Gal(b1-4)GlcNAc(b1-6)GalNAc
Procedure, shortened: as §1

[3] = molecular target: Gal(b1-4)GlcNAc(b1-6)[Gal(b1-3)]GalNAc
Procedure, shortened: as §1

[4] = molecular target: Gal(b1-4)GlcNAc(b1-6)[Gal(b1-4)GlcNAc(b1-3)]GalNAc
Procedure, shortened: as §1

Gal(b1-4)GlcNAc6P = molecular target: Gal(b1-4)GlcNAc6P
Procedure, shortened: as §1

Gal(b1-6)Gal = molecular target: Gal(b1-6)Gal
Procedure, shortened: as §1

Gal3S(b1-3)GalNAc = molecular target: Gal3S(b1-3)GalNAc
Procedure, shortened: as §1

Gal3S(b1-3)GlcNAc = molecular target: Gal3S(b1-3)GlcNAc
Procedure, shortened: as §1

[5] = molecular target: Gal3S(b1-3)[Fuc(a1-4)]GlcNAc
Procedure, shortened: as §1

Gal3S(b1-4)Glc = molecular target: Gal3S(b1-4)Glc
Procedure, shortened: as §1

Gal3S(b1-4)Glc6S = molecular target: Gal3S(b1-4)Glc6S
Procedure, shortened: as §1

Gal3S(b1-4)GlcNAc = molecular target: Gal3S(b1-4)GlcNAc
Procedure, shortened: as §1

[6] = molecular target: Gal3S(b1-4)[Fuc(a1-3)]Glc6S
Procedure, shortened: as §1

[7] = molecular target: Gal3S(b1-4)[Fuc(a1-3)]GlcNAc
Procedure, shortened: as §1

[8] = molecular target: Gal3S(b1-4)[Fuc(a1-3)]GlcNAc6S
Procedure, shortened: as §1

Gal3S4S(b1-4)GlcNAc = molecular target: Gal3S4S(b1-4)GlcNAc
Procedure, shortened: as §1

Gal3S6S(b1-4)GlcNAc = molecular target: Gal3S6S(b1-4)GlcNAc
Procedure, shortened: as §1

Gal3S6S(b1-4)GlcNAc6S = molecular target: Gal3S6S(b1-4)GlcNAc6S
Procedure, shortened: as §1

Gal4S(b1-4)GlcNAc = molecular target: Gal4S(b1-4)GlcNAc
Procedure, shortened: as §1

Gal4S6S(b1-4)GlcNAc = molecular target: Gal4S6S(b1-4)GlcNAc
Procedure, shortened: as §1

Gal6P(b1-4)GlcNAc = molecular target: Gal6P(b1-4)GlcNAc
Procedure, shortened: as §1

Gal6S(b1-3)GlcNAc = molecular target: Gal6S(b1-3)GlcNAc
Procedure, shortened: as §1

Gal6S(b1-3)GlcNAc6S = molecular target: Gal6S(b1-3)GlcNAc6S
Procedure, shortened: as §1

Gal6S(b1-4)Glc = molecular target: Gal6S(b1-4)Glc
Procedure, shortened: as §1

Gal6S(b1-4)Glc6S = molecular target: Gal6S(b1-4)Glc6S
Procedure, shortened: as §1

Gal6S(b1-4)GlcNAc = molecular target: Gal6S(b1-4)GlcNAc
Procedure, shortened: as §1

Gal6S(b1-4)GlcNAc6S = molecular target: Gal6S(b1-4)GlcNAc6S
Procedure, shortened: as §1

GalNAc(a1-3)Gal = molecular target: GalNAc(a1-3)Gal
Procedure, shortened: as §1

GalNAc(a1-3)GalNAc = molecular target: GalNAc(a1-3)GalNAc
Procedure, shortened: as §1

[9] = molecular target: GalNAc(a1-3)GalNAc(b1-3)Gal(a1-4)Gal(b1-4)Glc
Procedure, shortened: as §1

[10] = molecular target: GalNAc(a1-3)GalNAc(b1-3)Gal(a1-4)Gal(b1-4)GlcNAc
Procedure, shortened: as §1

GalNAc(b1-3)Gal = molecular target: GalNAc(b1-3)Gal
Procedure, shortened: as §1

[11] = molecular target: GalNAc(b1-3)Gal(a1-4)Gal(b1-4)GlcNAc
Procedure, shortened: as §1

[12] = molecular target: GalNAc(b1-3)Gal(a1-4)Gal(b1-4)GlcNAc(b1-3)Gal(b1-4)Glc
Procedure, shortened: as §1

[13] = molecular target: GalNAc(b1-3)Gal(a1-6)Gal(b1-4)Glc
Procedure, shortened: as §1

GalNAc(b1-3)GalNAc = molecular target: GalNAc(b1-3)GalNAc
Procedure, shortened: as §1

GalNAc(b1-3)GlcNAc = molecular target: GalNAc(b1-3)GlcNAc
Procedure, shortened: as §1

GalNAc(b1-4)Gal(b1-4)Glc = molecular target: GalNAc(b1-4)Gal(b1-4)Glc
Procedure, shortened: as §1

B1: OS9 (Arabidopsis thaliana) (protein)
chain: MRGSHHHHHHGMASMTGGQQMGRDLYDDDDKSRLQIFPAHLVGTFSRNNREPKYKIEFLPEDSPFHPGDNLESMVMLDKHGNRFLCYLPKEEKATSGWTSSQQNISTVMMETQQLVKLKTPDELLQPLSEKCLFRQEGWWSYEFCHQKYVRQLHVEDENKIVQEFFLGTFDPEATAAFNQTVSDASTDASQRYHSHVYTNGTTCDLTGSPAEVEVRFVCAETRAMVTSITELSTCKYALTVQCPTLCKHPLFQLEKPVSHTIHCNAIPVEEDATRNKEEQAVDESPKMIADS
- glycan array binding signal (z-score) [1]: 0.841
- glycan array binding signal (z-score) [2]: 0.21
- glycan array binding signal (z-score) [3]: 0.112
- glycan array binding signal (z-score) [4]: -0.077
- glycan array binding signal (z-score) (Gal(b1-4)GlcNAc6P): -0.112
- glycan array binding signal (z-score) (Gal(b1-6)Gal): 1.58
- glycan array binding signal (z-score) (Gal3S(b1-3)GalNAc): 0.079
- glycan array binding signal (z-score) (Gal3S(b1-3)GlcNAc): -0.032
- glycan array binding signal (z-score) [5]: 0.166
- glycan array binding signal (z-score) (Gal3S(b1-4)Glc): -0.625
- glycan array binding signal (z-score) (Gal3S(b1-4)Glc6S): -0.239
- glycan array binding signal (z-score) (Gal3S(b1-4)GlcNAc): -0.911
- glycan array binding signal (z-score) [6]: 1.23
- glycan array binding signal (z-score) [7]: 0.126
- glycan array binding signal (z-score) [8]: -0.567
- glycan array binding signal (z-score) (Gal3S4S(b1-4)GlcNAc): -0.345
- glycan array binding signal (z-score) (Gal3S6S(b1-4)GlcNAc): 1.25
- glycan array binding signal (z-score) (Gal3S6S(b1-4)GlcNAc6S): 3.98
- glycan array binding signal (z-score) (Gal4S(b1-4)GlcNAc): -0.448
- glycan array binding signal (z-score) (Gal4S6S(b1-4)GlcNAc): 1.44
- glycan array binding signal (z-score) (Gal6P(b1-4)GlcNAc): -0.208
- glycan array binding signal (z-score) (Gal6S(b1-3)GlcNAc): -0.366
- glycan array binding signal (z-score) (Gal6S(b1-3)GlcNAc6S): -0.439
- glycan array binding signal (z-score) (Gal6S(b1-4)Glc): 0.78
- glycan array binding signal (z-score) (Gal6S(b1-4)Glc6S): 0.922
- glycan array binding signal (z-score) (Gal6S(b1-4)GlcNAc): 1.05
- glycan array binding signal (z-score) (Gal6S(b1-4)GlcNAc6S): 1.9
- glycan array binding signal (z-score) (GalNAc(a1-3)Gal): 1.39
- glycan array binding signal (z-score) (GalNAc(a1-3)GalNAc): 0.827
- glycan array binding signal (z-score) [9]: 0.338
- glycan array binding signal (z-score) [10]: -0.114
- glycan array binding signal (z-score) (GalNAc(b1-3)Gal): -0.932
- glycan array binding signal (z-score) [11]: 2.17
- glycan array binding signal (z-score) [12]: 0.058
- glycan array binding signal (z-score) [13]: 0.217
- glycan array binding signal (z-score) (GalNAc(b1-3)GalNAc): -1.08
- glycan array binding signal (z-score) (GalNAc(b1-3)GlcNAc): -0.41
- glycan array binding signal (z-score) (GalNAc(b1-4)Gal(b1-4)Glc): 1.1
